{"source": "patent US20220249599A1", "about": "“TREATMENT OF IMPLANTS WITH ENGINEERED ANTIMICROBIAL AMPHIPHILIC PEPTIDES” (priority 2018, published 2022)", "key": {"[1]": {"test_system": "Staphylococcus aureus (n = 104)", "type": "cell-based", "parameters": "MIC range: unit not given beside the values", "conditions": "for MIC range: all methicillin-resistant", "experimental": "(§1) The clinical isolates were obtained from USA hospitals. […] Plates were incubated at 35° C. overnight."}, "[2]": {"test_system": "Escherichia coli ATCC 25922 (QC)", "conditions": "cited from earlier work"}, "[3]": {"test_system": "Pseudomonas aeruginosa ATCC 27853 (non-MDR; QC)", "conditions": "cited from earlier work"}, "[4]": {"test_system": "Klebsiella pneumoniae (n = 101)", "type": "cell-based", "experimental": "as §1"}, "[5]": {"test_system": "Streptococcus pneumoniae ATCC 49619 (QC)", "conditions": "cited from earlier work"}, "[6]": {"test_system": "Enterococcus faecalis ATCC 29212 (VSE; QC)", "conditions": "cited from earlier work"}, "[7]": {"test_system": "Staphylococcus aureus ATCC 29213 (MSSA; QC)", "conditions": "cited from earlier work"}, "[8]": {"test_system": "Enterobacter spp. (n = 102)", "type": "cell-based, Enterobacter aerogenes and E. cloacae", "parameters": "unit not given beside the values", "experimental": "as §1"}, "[9]": {"test_system": "Pseudomonas aeruginosa (n = 109)", "type": "cell-based", "parameters": "unit not given beside the values", "experimental": "as §1"}, "[10]": {"test_system": "Acinetobacter spp. (n = 104)", "type": "cell-based", "parameters": "unit not given beside the values", "experimental": "as §1"}, "[11]": {"test_system": "Enterococcus faecium (n = 104)", "experimental": "Comparator antibiotics were supplied by Micromyx, and stock solutions were prepared on the first day of testing using solvents recommended by CLSI (1). Stock solutions of all compounds were made at 40× the final testing concentration and stored at −80° C. prior to testing. Information regarding compound source, catalog and lot number, testing concentrations and drug diluent for the comparators and test agent are detailed below in Table 3.\nThe test organisms evaluated in this study consisted of clinical isolates from the Micromyx Repository and reference isolates from the American Type Culture Collection (ATCC; Manassas, Va.). The clinical isolates were obtained from USA hospitals. Upon initial receipt at Micromyx, the organisms were sub-cultured onto an appropriate agar medium. Following incubation, colonies were harvested from these plates and cell suspensions prepared and frozen at −80° C. with a cryoprotectant. Prior to testing, the isolates were streaked from frozen vials onto Trypticase Soy Agar with 5% sheep blood (Becton Dickenson [BD]; Sparks, MD; Lot Nos. 7173618, 7166759, 7208688, 72144895, 7228505 and Remel Lenexa, Kans. Lot No. 212574). Plates were incubated at 35° C. overnight.\nMueller Hinton II broth (MHB II; BD; Lot Nos. 6258541 and 7143896) was used for MIC testing of aerobic organisms.\nMIC values were determined using a broth microdilution procedure described by CLSI (1, 3). Automated liquid handlers (Multidrop 384, Labsystems, Helsinki, Finland; Biomek 2000 and Biomek FX, Beckman Coulter, Fullerton Calif.) were used to conduct serial dilutions and liquid transfers.\nTo prepare the drug mother plates, which would provide the serial drug dilutions for the replicate daughter plates, the wells of columns 2-12 of standard 96-well microdilution plates (Costar 3795) were filled with 150 µl of the designated diluent for each row of drug. The test articles and comparator compounds ([…] at 40× the highest concentration to be tested) were dispensed into the appropriate wells in column 1. The Biomek 2000 was then used to make 2-fold serial dilutions in the mother plates from column 1 through column 11. The wells of Column 12 contained no drug and served as the organism growth control wells for the assay.\nThe daughter plates were loaded with […] per well of MHB II using the Multidrop 384. The daughter plates were completed on the Biomek FX instrument which transferred 5 µL of drug solution from each well of a mother plate to the corresponding well of each daughter plate in a single step. […]\nPlates were stacked 3-4 high, covered with a lid on the top plate, placed in plastic bags, and incubated at 35° C. for 16 to 20 hrs. […] The MIC was read and recorded as the lowest concentration of drug that inhibited visible growth of the organism. […]"}, "[12]": {"test_system": "S. aureus strain SH1000 biofilms", "assay": "In vitro biofilm disruption on stainless steel rods", "type": "cell-based", "conditions": "S. aureus SH1000, 10×MIC, up to 24 hours", "from_the_text": "FIG. 15 depicts the effect of administration of SEQ ID NO:1 and cefazolin on biofilm maintenance. […] SEQ ID NO:1 eliminated mature implant biofilms on a model strain of S. aureus, SH1000."}, "P. aeruginosa biofilm": {"test_system": "P. aeruginosa biofilm", "assay": "Disruption of mature biofilm, crystal violet absorbance at 550 nm", "type": "cell-based", "conditions": "24 h P. aeruginosa biofilm, 1 hour incubation with peptide"}, "[13]": {"test_system": "Escherichia coli (n = 101)", "type": "cell-based", "experimental": "as §1"}, "[14]": {"assay": "Precipitation during broth dilution testing", "type": "physicochemical", "conditions": "MHB II with 0.002% polysorbate 80"}, "S. aureus biofilm": {"test_system": "S. aureus biofilm", "assay": "Disruption of mature biofilm, crystal violet absorbance at 550 nm", "type": "cell-based", "conditions": "24 h S. aureus biofilm, 1 hour incubation with peptide"}, "P. aeruginosa": {"test_system": "P. aeruginosa", "assay": "Mouse P. aeruginosa infection (sepsis) model", "type": "in vivo, Swiss Webster mice", "conditions": "mice, 3 or 4 mg/kg, 4 and 24 h post-treatment"}, "[15]": {"conditions": "Staphylococcus aureus (n = 104)"}}, "note": "Entries after “also recorded” stand apart in the source; their conditions may differ. Where two headings read alike, the source gives them in different places. For some assays here: Part of at least one peptide drawing is inferred or uncertain, most often the ends. For some assays here: At least one compound was matched to its structure with a doubt left. Ends that are not written are not given here.", "data": [{"compound": "CCC[C@@H]1C[C@@H](C(=O)N[C@@H]([C@H]2O[C@H](SC)[C@H](O)[C@@H](O)[C@H]2O)[C@H](C)Cl)N(C)C1", "note": "[Clindamycin]", "values": [{"measurement": "MIC range", "setting": "[1]; [15]", "result": "0.03->16"}]}, {"compound": "C[C@H]1COc2c(N3CCN(C)CC3)c(F)cc3c(=O)c(C(=O)O)cn1c23", "note": "[Levofloxacin]", "values": [{"measurement": "MIC range in parentheses below the MIC (QC range)", "setting": "[2]", "result": "(0.008-0.06) μg/mL"}, {"measurement": "MIC range in parentheses below the MIC (QC range)", "setting": "[3]", "result": "(0.5-4) μg/mL"}, {"measurement": "MIC range", "setting": "[4]", "result": "0.03->8"}, {"measurement": "MIC range in parentheses below the MIC (QC range)", "setting": "[5]", "result": "(0.5-2) μg/mL"}, {"measurement": "MIC range in parentheses below the MIC (QC range)", "setting": "[6]", "result": "(0.25-2) μg/mL"}, {"measurement": "MIC range in parentheses below the MIC (QC range)", "setting": "[7]", "result": "(0.06-0.5)^2 μg/mL"}, {"measurement": "MIC range", "setting": "[8]", "result": "0.015->8"}, {"measurement": "MIC range", "setting": "[9]", "result": "0.015->8"}, {"measurement": "MIC range", "setting": "[10]", "result": "0.03->8"}, {"measurement": "MIC range", "setting": "[1]; [15]", "result": "0.12->8"}]}, {"compound": "RRWVRRVRRVWRRVVRVVRRWVRR-NH2 (C-terminus assumed) [SEQ ID NO: 1]", "values": [{"measurement": "MIC50", "setting": "[11]", "result": 1, "unit": "µg/mL"}, {"measurement": "MIC90", "setting": "[11]", "result": 2, "unit": "µg/mL"}, {"measurement": "MIC range", "setting": "[11]", "result": "≤0.12 to 4", "unit": "µg/mL"}, {"measurement": "MIC range", "setting": "[11]; listed as SEQ ID NO:1", "result": "<0.12 to 4", "unit": "µg/mL"}, {"measurement": "Reduction of mature biofilm on stainless steel rods", "setting": "[12]", "result": "under the limit of detection after 30 minutes"}, {"measurement": "Effect on biofilm, absorbance at 550 nm", "setting": "P. aeruginosa biofilm", "result": "profound effect on the biofilm as a function of the concentration of the peptide"}, {"measurement": "MIC50", "setting": "[13]; E. coli ESBL isolates, n 48", "result": 2, "unit": "µg/mL"}, {"measurement": "MIC90", "setting": "[13]; E. coli ESBL isolates, n 48", "result": 4, "unit": "µg/mL"}, {"measurement": "MIC50", "setting": "[13]; Escherichia coli (n = 101)", "result": 2, "unit": "µg/mL"}, {"measurement": "MIC90", "setting": "[13]; Escherichia coli (n = 101)", "result": 4, "unit": "µg/mL"}, {"measurement": "Precipitation in broth dilution testing", "setting": "[14]; at 16 and 8 μg/mL", "result": "slight precipitation"}, {"measurement": "Precipitation in broth dilution testing", "setting": "[14]; at 128, 64 and 32 μg/mL", "result": "Significant precipitation"}, {"measurement": "Effect on biofilm, absorbance at 550 nm", "setting": "S. aureus biofilm", "result": "profound effect on the biofilm as a function of the concentration of the peptide; also recorded: able to disrupt the biofilm at a lower concentration than for P. aeruginosa"}, {"measurement": "MIC50", "setting": "[1]; S. aureus MRSA isolates, n 104", "result": 4, "unit": "µg/mL"}, {"measurement": "MIC90", "setting": "[1]; S. aureus MRSA isolates, n 104", "result": 8, "unit": "µg/mL"}, {"measurement": "MIC50", "setting": "[1]; [15]", "result": 4, "unit": "µg/mL"}, {"measurement": "MIC90", "setting": "[1]; [15]", "result": 8, "unit": "µg/mL"}, {"measurement": "Bacterial load in the kidney", "setting": "P. aeruginosa", "result": "decreased significantly"}]}]}
